Measurements reported in the supplement of paper PMC10735217.
Where a name gives a salt, the structure may show the parent alone. The list shows a part of the results. Single values are uncertain here, since repeats match poorly.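 In a drug-repurposing library screen, luminescence reads luciferase driven by eight TEAD-binding elements, stably integrated into human kidney-derived cells. Compounds scoring over five robust Z scores above the plate mean are called hits.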

Test system: HEK293A TEAD-LUC reporter
Assay: TEAD-luciferase reporter activity (YAP activation), robust Z score vs plate; higher = stronger YAP/TEAD activation
Settings: 24 h

Row | SMILES | TEAD-luciferase reporter activity (compound concentration: 200 nM) | TEAD-luciferase reporter activity (compound concentration: 10 uM) | TEAD-luciferase reporter activity (compound concentration: 2 uM)
1 | [O]=[Mn](=[O])(=[O])[O-] | inactive: -1.59 | inactive: 1.11 | 
2 | CCOC(=O)/C=C1\CC(C)(CC)CC(=O)N1Cc1ccc(-c2ccccc2-c2nn[nH]n2)cc1 (configuration not stated) | inactive: -1.08 | inactive: 0.378 | inactive: 0.577
3 | O=C(c1ccc(O)c(Cl)c1)N1CCOc2ccccc21 | inactive: -2.45 | inactive: -0.9 | inactive: -0.423
4 | O=C(N[C@@H](Cc1ccccc1)C(=O)O)c1ccc(-c2ccc(C(F)(F)F)cc2)cc1 | inactive: -0.171 | inactive: -0.45 | inactive: 0.153
5 | N=C(N)N/N=C1\CCc2c(C(=N)N)cccc21 [Sardomozide] | inactive: 1.04 | inactive: -0.484 | inactive: -0.973
6 | CC[C@H](C)[C@H](NC(=O)[C@H](C)NC(=O)[C@@H](N)C(C)C)C(=O)N[C@H](C(=O)N[C@H](C(=O)N[C@@H](CC(C)C)C(=O)N[C@H](C(=O)N[C@@H](CCCCN)C(=O)O)C(C)C)C(C)C)[C@@H](C)O | inactive: -1.1 | inactive: -0.477 | inactive: -1.59
7 | COC(=O)COc1cccc(CCc2nc(-c3ccccc3)c(-c3ccccc3)o2)c1 | inactive: 4.19 | inactive: 3.87 | inactive: -0.57
8 | CC12CCC(=O)C=C1CCC1C2C(O)CC2(C=O)C(C(=O)CO)CCC12 (configuration not stated) | inactive: -0.0149 | inactive: 0.925 | inactive: -1.05
9 | O=[N+]([O-])CC(SCc1ccc(Cl)cc1)c1ccccc1 (configuration not stated) | inactive: -1.5 | inactive: 1.19 | inactive: 0.199
10 | CCN(CC)CCCN(c1ccccc1)C1Cc2ccccc2C1 [aprindine] | inactive: -0.74 | inactive: 4.92 | inactive: 2.48
11 | CC(C)c1oc(-c2ccc(Cl)cc2Cl)nc1CCC(=O)c1ccc(OC(C)(C)C(=O)O)cc1 | inactive: -0.809 | inactive: 2.22 | inactive: -0.918
12 | N=C(N)c1ccc(C=C2c3ccccc3-c3ccccc32)cc1 | inactive: -0.311 | inactive: -0.832 | inactive: -1.4
13 | CCN(Cc1cc(C(F)(F)F)ccc1-c1cc(CC(=O)O)ccc1OC)C(=O)NCc1ccccc1 | inactive: 0.377 | inactive: 2.36 | 
14 | O=C(O)c1cccc(C[C@H]2COc3ccc(OCc4nc5cc(F)ccc5s4)cc3[C@H]2O)c1 | inactive: -1.03 | inactive: -0.706 | inactive: -0.484
15 | COc1cc2c(cc1OC)C(CCc1ccccc1)=NCC2 | inactive: -3.66 | inactive: 0.0471 | inactive: -1.17
16 | Cc1cc(OCCN(C)C)c(C(C)C)cc1OC(=O)CC(C)(C)SN=O | inactive: -1.12 | inactive: -0.961 | inactive: 0.912
17 | OCc1ccccc1O[C@@H]1O[C@H](CO)[C@@H](O)[C@H](O)[C@H]1O [Salicin] | inactive: -0.475 | inactive: 3.46 | inactive: -0.504
18 | Cc1ccc2c(-c3ccccc3)nc(=O)n(C(C)C)c2c1 [proquazone] | inactive: -1.94 | inactive: -0.34 | inactive: -0.836
19 | CCC[C@H](NC(=O)[C@@H]1[C@H]2CCC[C@H]2CN1C(=O)[C@@H](NC(=O)[C@@H](NC(=O)c1cnccn1)C1CCCCC1)C(C)(C)C)C(=O)C(=O)NC1CC1 [telaprevir] | inactive: -0.79 | inactive: -1.03 | inactive: -1.89
20 | C[C@H](N)C(=O)N1CCC[C@H]1C(=O)NCC(=O)N1CCC[C@H]1C(=O)N[C@@H](CCCNC(=N)N)C(=O)O | inactive: -1.18 | inactive: -0.212 | inactive: 1.31
21 | C[C@]12CC[C@@H]3c4ccc(O)cc4CC[C@H]3[C@@H]1CC[C@H]2O [alpha-estradiol] | inactive: 3.55 | inactive: -0.642 | inactive: -0.381
22 | COCC(O)CN(C(C)=O)c1c(I)c(C(=O)NCC(O)CO)c(I)c(C(=O)NCC(O)CO)c1I (configuration not stated) [iopentol] | inactive: -0.856 | inactive: 0.202 | inactive: -0.687
23 | CC(C)C[C@H](NC(=O)[C@H](CC(C)C)NC(=O)[C@@H](Cc1c[nH]c2ccccc12)NC(=O)[C@H](Cc1ccccc1)NC(=O)[C@@H](Cc1c[nH]c2ccccc12)NC(=O)[C@H](CCC(N)=O)NC(=O)[C@@H](Cc1ccccc1)NC(=O)[C@@H]1CCCN1C(=O)[C@H](CCCCN)NC(=O)[C@@H]1CCCN1C(=O)[C@H](N)CCCNC(=N)N)C(N)=O | inactive: -1.54 | inactive: -0.697 | inactive: 1.07
24 | CCNCc1cc(C(C)(C)C)c(O)c(C(C)(C)C)c1 | inactive: -2.87 | inactive: 4.63 | inactive: -1.06
25 | Cc1ccccc1CN1CCCC12Cc1ccccc1CNC2=O (configuration not stated) | inactive: 2.18 | inactive: 0.617 | 
26 | CN(C)CCOc1ccc2c(=O)c3ccc(OCCN(C)C)cc3oc2c1 | inactive: 1.51 | inactive: -0.233 | inactive: 0.787

Row | SMILES | TEAD-luciferase reporter activity (compound concentration: 200 nM) | TEAD-luciferase reporter activity (compound concentration: 10 uM) | TEAD-luciferase reporter activity (compound concentration: 2 uM)
27 | COC(=O)C1=C(C)NC(C)=C(C(=O)O[C@@H]2CCN(Cc3ccccc3)C2)C1c1cccc([N+](=O)[O-])c1 (some centres not stated) [Pharmaprojects No. 2106] | inactive: 0.779 | inactive: -0.717 | inactive: -1.99
28 | O=C1C[C@@H]2CCN(C(=O)c3ccc4c(c3)OCO4)C[C@@H]2CCN1 | active: 6.18 | inactive: 2.02 | 
29 | CN1CCN(c2ccc3[nH]c(-c4ccc5[nH]c(-c6ccc(O)cc6)nc5c4)nc3c2)CC1 | inactive: -0.588 | inactive: -1.21 | inactive: -0.43
30 | O=C(O)c1cn2c3c(c(N4CCN(c5ccccn5)CC4)c(F)cc3c1=O)OCC2CF (configuration not stated) | inactive: -1.46 | inactive: 2.96 | inactive: -0.725
31 | CC(=O)OCCN1CCN(CC/C=C2/c3ccccc3Sc3ccc(Cl)cc32)CC1 [Zuclopenthixol acetate] | inactive: -1 | inactive: -0.37 | inactive: 0.00119
32 | O=c1[nH]nc(OCCCc2ccc(Cl)cc2)c(NCc2cccnc2)c1Br [parogrelil hydrochloride] | inactive: 0.732 | inactive: -0.617 | inactive: -0.612
33 | COc1ccc2nc3cc(Cl)ccc3c(Nc3cc(CN4CCCC4)c(O)c(CN4CCCC4)c3)c2n1 [pyronaridine] | inactive: -0.558 | inactive: -0.394 | active: 8.66
34 | Cc1c(F)cc(C(=O)NC2CC2)cc1-c1ccc(C(=O)NCC(C)(C)C)cn1 [losmapimod] | inactive: -0.934 | inactive: -0.613 | inactive: -1.62
35 | CC(CCc1ccc(O)cc1)NCC(O)c1ccc(O)cc1 (configuration not stated) [butopamine] | inactive: 0.296 | inactive: 0.467 | inactive: -1.42
36 | O=C(O)c1ccc(NC2OCC(O)C(O)C2O)cc1 (configuration not stated) [benaxibine] | inactive: -0.868 | inactive: 1.4 | inactive: -0.0448
37 | COc1cc(CCN(C)CCCNC(=O)C/C=C/c2ccc(-n3ccnc3)cc2)cc(OC)c1 | inactive: -1.32 | inactive: -0.0301 | inactive: -1.71
38 | Cc1ccc([C@@H]2O[C@H](CO)[C@@H](O)[C@H](O)[C@H]2O)cc1Cc1ccc(-c2ccc(F)cc2)s1 [Canagliflozin] | inactive: -0.896 | inactive: -2.37 | inactive: -3.32
39 | C[C@H](C#Cc1ccc(Oc2ccc(F)cc2)o1)N(O)C(N)=O | inactive: -1.69 | inactive: 1.58 | inactive: -0.107
40 | O=C(c1ccc2c(c1)OCO2)N1CCC(N2CCOCC2=O)CC1 | inactive: 2.07 | inactive: 0.943 | 
41 | CCN(CC)CCCC(C)Nc1ccnc2cc(Cl)ccc12 (configuration not stated) [chloroquine, DualTPharma] | inactive: -0.0598 | inactive: 3.54 | 
42 | CCC(=O)O[C@]1(C(=O)SCF)[C@H](C)C[C@H]2[C@@H]3C[C@H](F)C4=CC(=O)C=C[C@]4(C)[C@@]3(F)[C@@H](O)C[C@@]21C [Fluticasone propionate] |  |  | inactive: -0.214
43 | CN(C)CCOCCOC(=O)N1c2ccccc2Sc2ccccc21 | inactive: -1.18 | inactive: -0.383 | inactive: -0.867
44 | CCCS(=O)(=O)N1CCN(Cc2ccc(NC(=O)c3ccc(-c4cc(NC(=O)C5CC5)ccc4OC(F)(F)F)cc3)cc2)CC1 | inactive: -0.303 | inactive: 2.39 | inactive: 0.733
45 | CCC(=C(c1ccc(OCCN(C)C)cc1)c1ccc(OP(=O)(O)O)cc1)c1ccc(C(C)C)cc1 [Miproxifene phosphate] | inactive: 0.0527 | inactive: 0.405 | inactive: -1.43
46 | OC(CN1CCCCC1)c1cc(-c2ccccc2)on1 (configuration not stated) [perisoxal citrate] | inactive: 0.183 | inactive: 2.19 | inactive: -1.02
47 | CCOC(=O)Nc1ccc2c(c1)N(C(=O)CCN1CCOCC1)c1ccccc1S2 [moracizine] | inactive: -1.2 | inactive: 0.943 | inactive: -1.52
48 | CN(CC(=O)NO)C(=O)[C@@H]1CCCC[C@@H]1C(=O)O | inactive: 0.533 | inactive: 3.89 | inactive: -0.636
49 | CCC(C)(C)C(=O)C(=O)N1CCC[C@H]1C(=O)OCCCc1cccnc1 | inactive: -0.51 | inactive: 3.7 | inactive: -0.843
50 | OCCN1C[C@H](O)[C@@H](O)[C@H](O)[C@H]1CO [miglitol] |  |  | inactive: 0.191
51 | OCCN1C[C@H](O)[C@@H](O)[C@H](O)[C@H]1CO | inactive: -0.444 | inactive: 0.867 | 

An excerpt from above, reduced to TEAD-luciferase reporter activity (compound concentration: 2 uM) and TEAD-luciferase reporter activity (compound concentration: 200 nM).
Row	SMILES	TEAD-luciferase reporter activity (compound concentration: 2 uM)	TEAD-luciferase reporter activity (compound concentration: 200 nM)
31	CC(=O)OCCN1CCN(CC/C=C2/c3ccccc3Sc3ccc(Cl)cc32)CC1 [Zuclopenthixol acetate]	inactive: 0.00119	inactive: -1
40	O=C(c1ccc2c(c1)OCO2)N1CCC(N2CCOCC2=O)CC1		inactive: 2.07
45	CCC(=C(c1ccc(OCCN(C)C)cc1)c1ccc(OP(=O)(O)O)cc1)c1ccc(C(C)C)cc1 [Miproxifene phosphate]	inactive: -1.43	inactive: 0.0527
